In the supplement of paper PMC12873370 one finds cell viability data, which are given here for 35 compounds.

Values joined by “and” are separate entries in the source; they are usually repeats but may differ in a detail not shown here. Equal values may be shown once. This is one part of the list. Repeats are few or missing, and single values can be far off.

The subject of assay [1] is MEPP (mouse ovarian epithelium Trp53/Pten KO). Put plainly: cell viability relative to untreated (fraction); higher = less growth inhibition. To be noted: 5 µM; 3 days.
The subject of assay [2] is PREPP (mouse prostate epithelium Trp53/Pten KO). Described as above. Particulars: 5 µM; 3 days.

As for `CC(C)[C@H](NC(=O)CN)C(=O)O`, the cell viability came out at 0.867 in assay [1] and 1.24 in assay [2].

With `NCCCS(=O)(=O)O`, the figures for the cell viability in assay [1] and in assay [2] were 0.847 and 0.829, respectively.

As to `O=C(O)c1cc(O)c(O)c(O)c1`, the cell viability came out at 1.04 in assay [1] and 1.08 in assay [2].

Consider `O=C(O)CCCCCCCCCCCCC(=O)O`, for which the cell viability in assay [1] came to 1.1; in assay [2] it was 0.976.

On to `COc1cc(NC(C)CCCN)c2ncccc2c1` (stereo not given), for which the cell viability in assay [1] turned out to be 1.18; in assay [2], 0.779.

Take `C[C@H](O)c1ccccc1`: the cell viability in assay [1] worked out at 0.888; in assay [2], 1.17.

As for `CCCOc1ccc(C(=O)OCCN(CC)CC)cc1N`, the cell viability in assay [1] stood at 0.991; in assay [2] it was 0.85.

For the compound `COC(=O)c1ccco1`, the cell viability in assay [1] came to 0.952; in assay [2], 0.997.

For `OC[C@@H](O)[C@@H](O)[C@@H](O)CO`, the cell viability in assay [1] was found to be 0.825; in assay [2], 0.963.

As for `C=C1C[C@@]23CC[C@H]4[C@@](C)(CCC[C@@]4(C)C(=O)O[C@@H]4O[C@H](CO)[C@@H](O)[C@H](O)[C@H]4O)[C@@H]2CC[C@]1(O[C@@H]1O[C@H](CO)[C@@H](O)[C@H](O)[C@H]1O[C@@H]1O[C@H](CO)[C@@H](O)[C@H](O)[C@H]1O)C3`, the cell viability in assay [1] amounted to 1.18; in assay [2], 1.

As to `O.O.O.O.O=C([O-])CC(O)(CC(=O)[O-])C(=O)[O-].[Li+].[Li+].[Li+]`, the cell viability in assay [1] worked out at 1.05; in assay [2], 0.831.

`COC(=O)C[C@](O)(CCCC(C)(C)O)C(=O)O[C@@H]1C(OC)=C[C@]23CCCN2CCc2cc4c(cc2[C@H]13)OCO4`: the results for the cell viability in assay [1] and in assay [2] were 0.453 and 0.697, respectively.

As for `CCCCCCCCCCC[C@@H](C[C@@H]1OC(=O)[C@H]1CCCCCC)OC(=O)[C@H](CC(C)C)NC=O`, the cell viability is 1.15 in assay [1] and 1.03 in assay [2].

As to `CC[C@H](C)[C@H](N)C1=N[C@H](C(=O)N[C@@H](CC(C)C)C(=O)N[C@H](CCC(=O)[O-])C(=O)N[C@H](C(=O)N[C@H]2CCCCNC(=O)[C@H](CC(N)=O)NC(=O)[C@@H](CC(=O)[O-])NC(=O)[C@H](Cc3cnc[nH]3)NC(=O)[C@@H](Cc3ccccc3)NC(=O)[C@H]([C@@H](C)CC)NC(=O)[C@@H](CCCN)NC2=O)[C@@H](C)CC)CS1.[Zn+2]`, the cell viability in assay [1] turned out to be 0.98; in assay [2] it was 0.819.

As to `CCC(C)(C)c1ccc(CC(C)CN2C[C@@H](C)O[C@@H](C)C2)cc1` (stereo not given in full), the cell viability in assay [1] amounted to 0.982; in assay [2], 0.852.

Take `O=C(O)c1cccc(O)c1O`: the cell viability was determined as 0.941 in assay [1] and 0.873 in assay [2].

`C/C=C/C#CC#C[C@@H](O)[C@@H](/C=C/CCCO)O[C@@H]1O[C@H](CO)[C@@H](O)[C@H](O)[C@H]1O`: the values for the cell viability in assay [1] and in assay [2] were 1.1 and 1.13, respectively.

For the compound `O=c1c(-c2ccc(O)cc2)coc2cc(O)cc(O)c12`, the cell viability in assay [1] was 1.1; in assay [2], 0.81.

As for `OCCc1ccc(O)c(O)c1`, the cell viability came to 0.982 in assay [1] and 1.01 in assay [2].

Consider `CSCCC(N)C(=O)O` (stereo not given), for which the cell viability in assay [1] came out at 1; in assay [2], 1.1.

Regarding `O=C(O)[C@H]1O[C@@H](Oc2cc3oc(-c4ccc(O)cc4)cc(=O)c3c(O)c2O)[C@H](O)[C@@H](O)[C@@H]1O`, the results for the cell viability in assay [1] and in assay [2] were 0.873 and 0.836, respectively.

With `O=C(O)CCc1ccccc1`, the cell viability in assay [1] came to 1.69; in assay [2] it was 1.

As for `CCCCCCCC/C=C\CCCCCCCCCCCCCC(=O)O`, the cell viability in assay [1] was found to be 0.84; in assay [2], 0.905.

As for `CC(C)(S)[C@@H](N)C(=O)O`, the cell viability in assay [1] was 0.791 and 0.884; in assay [2] it was 0.949 and 0.967.

Turning to `O=C(/C=C/c1ccc(O)c(O)c1)O[C@H](Cc1ccc(O)c(O)c1)C(=O)O`, the figures for the cell viability in assay [1] and in assay [2] were 0.801 and 1.15, respectively.

Regarding `O=C(O)CCc1ccc(O)cc1`, the cell viability in assay [1] came out at 1.52; in assay [2], 0.977.

With `Cn1cnc2c1c(=O)[nH]c(=O)n2C`, the cell viability was determined as 1.04 in assay [1] and 1.06 in assay [2].

On to `CC[C@@H](N)C(=O)O`, for which the cell viability amounted to 0.99 in assay [1] and 0.838 in assay [2].

Turning to `CC(=O)O[C@H]1C(=O)[C@@]2(C)[C@H]([C@H](OC(=O)c3ccccc3)[C@]3(O)C[C@H](OC(=O)[C@H](O)[C@@H](NC(=O)c4ccccc4)c4ccccc4)C(C)=C1C3(C)C)[C@]1(OC(C)=O)CO[C@@H]1C[C@@H]2O`, the cell viability was 0.64 and 0.734 in assay [1]; 0.697 and 0.797 in assay [2].

Consider `COc1c2c(cc3oc(CO)cc(=O)c13)O[C@H](C(C)(C)O)C2`, for which the cell viability in assay [1] turned out to be 1.37; in assay [2], 0.906.

`C[C@@H](CC[C@@]1(O)O[C@H]2C[C@H]3[C@@H]4CC[C@@H]5C[C@@H](O[C@@H]6O[C@H](CO)[C@H](O)[C@H](O)[C@H]6O[C@@H]6O[C@H](CO)[C@@H](O)[C@H](O)[C@H]6O)CC[C@]5(C)[C@H]4CC[C@]3(C)[C@H]2[C@@H]1C)CO[C@@H]1O[C@H](CO)[C@@H](O)[C@H](O)[C@H]1O`: the results for the cell viability in assay [1] and in assay [2] were 0.964 and 0.693, respectively.

Turning to `O=C(N[C@H](CO)[C@H](O)c1ccc([N+](=O)[O-])cc1)C(Cl)Cl`, the cell viability in assay [1] turned out to be 1.15; in assay [2] it was 0.932.

As for `C[C@H]1c2cccc(O)c2C(=O)C2=C(O)[C@]3(O)C(=O)C(C(N)=O)=C(O)[C@@H](N(C)C)[C@@H]3[C@@H](O)[C@@H]21`, the cell viability in assay [1] is 0.974; in assay [2], 0.798.

In the case of `N[C@H]1CONC1=O`, the results for the cell viability in assay [1] and in assay [2] were 0.837 and 0.867, respectively.

As for `O=C1c2ccccc2C(=O)c2c1ccc(O)c2O`, the cell viability came to 1.05 in assay [1] and 0.937 in assay [2].
